Values quoted from earlier work in patent US20210268001A1, “USE OF MIOTIC CHOLINERGIC […] AND F2a PROSTAGLANDIN ANALOGUES FOR PREVENTION AND TREATMENT OF MYOPIA” (priority 2018, published 2021).
At least one compound was matched to its structure with a doubt left.

Test system: cholinergic receptors
Parameters: action time: unit not given here

Row | SMILES | duration of action (in words) (in vivo) | action time (reversible acetylcholinesterase inhibitors)
1 | CC(=O)OCC[N+](C)(C)C [acetylcholine] | a few minutes | –
2 | CNC(=O)Oc1ccc2c(c1)[C@]1(C)CCN(C)[C@@H]1N2C [physostigmine] | – | one to two
